Binding data for 2 molecules are collected here from publication PMC9218074.

Amino acid sequences for entries named in this document (tags omitted). Residues count along the entry.
UniProt Q9QUK6, residues 26-835: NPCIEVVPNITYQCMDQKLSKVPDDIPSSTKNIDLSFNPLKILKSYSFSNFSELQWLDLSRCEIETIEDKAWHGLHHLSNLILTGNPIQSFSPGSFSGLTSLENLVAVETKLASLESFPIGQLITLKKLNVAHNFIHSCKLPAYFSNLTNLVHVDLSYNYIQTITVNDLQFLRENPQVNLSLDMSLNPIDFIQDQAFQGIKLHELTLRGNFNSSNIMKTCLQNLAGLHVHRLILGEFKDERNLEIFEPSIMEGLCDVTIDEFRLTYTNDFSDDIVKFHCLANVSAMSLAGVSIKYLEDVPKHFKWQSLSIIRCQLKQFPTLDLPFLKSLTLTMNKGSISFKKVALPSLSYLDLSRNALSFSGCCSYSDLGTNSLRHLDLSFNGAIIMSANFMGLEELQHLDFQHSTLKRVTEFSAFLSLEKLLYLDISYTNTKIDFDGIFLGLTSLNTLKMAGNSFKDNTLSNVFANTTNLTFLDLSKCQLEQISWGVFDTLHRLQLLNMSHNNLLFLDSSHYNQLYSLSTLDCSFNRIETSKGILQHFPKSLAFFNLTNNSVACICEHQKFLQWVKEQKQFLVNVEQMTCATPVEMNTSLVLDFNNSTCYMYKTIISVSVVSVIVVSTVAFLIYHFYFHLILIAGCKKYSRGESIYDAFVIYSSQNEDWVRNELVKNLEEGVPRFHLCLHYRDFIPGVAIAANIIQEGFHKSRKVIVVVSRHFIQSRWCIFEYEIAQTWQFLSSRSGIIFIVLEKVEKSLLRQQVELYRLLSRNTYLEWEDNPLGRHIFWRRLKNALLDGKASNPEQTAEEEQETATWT
UniProt P22366: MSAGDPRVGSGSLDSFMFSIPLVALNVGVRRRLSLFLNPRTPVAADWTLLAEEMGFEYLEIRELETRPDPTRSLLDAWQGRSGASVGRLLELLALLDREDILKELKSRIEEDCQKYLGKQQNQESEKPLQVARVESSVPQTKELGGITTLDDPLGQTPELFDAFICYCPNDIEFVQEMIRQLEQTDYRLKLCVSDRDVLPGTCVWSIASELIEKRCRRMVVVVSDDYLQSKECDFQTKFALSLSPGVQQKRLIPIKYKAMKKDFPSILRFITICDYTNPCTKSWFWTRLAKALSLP

The target in this assay is Toll-like receptor 4 (mouse (endogenous in BV-2)) (UniProt Q9QUK6). Put plainly: co-IP; BV-2 cells treated with LPS (200 ng/mL) and indicated concentrations of ACT001 for 1 h; lysis in 25 mM Tris pH 8.0, 150 mM KCl, 5 mM EDTA, 0.5% NP-40; anti-TLR4 antibody overnight at 4 °C, magnetic beads; MD2, TLR4 and MyD88 detected by immunoblotting.

Results are given in words; binding and its absence hold for the method and conditions named. Binding seen in cells or lysates may run through a third protein. Some results given as binding are weak or reduced against the parent protein; the word gives no strength.

As for “myeloid differentiation primary response protein 88 (from UniProt P22366 1-296)”, the binding entry is recorded as “binds”.

B1: myeloid differentiation 2 (protein, UniProt Q9JHF9 19-160)
chain: EKQQWFCNSSDAIISYSYCDHLKFPISISSEPCIRLRGTNGFVHVEFIPRGNLKYLYFNLFISVNSIELPKRKEVLCHGHDDDYSFCRALKGETVNTSIPFSFEGILFPKGHYRCVAEAIAGDTEEKLFCLNFTIIHRRDVN
For the molecule B1, the binding result is “binds”.
